At least one structure is not confirmed: it was looked up by name or label, or the drawing left a doubt.
Legend:
Format in all cases: in vivo
[1] = tested on: healthy human subjects; assay: Attention by Digit Symbol Substitution Test (DSST), phase 1 trial; settings: regardless of the route of administration
[2] = tested on: healthy human subjects; assay: Agitation/Calmness Evaluation Scale (ACES), phase 1 trial; settings: all subject groups treated with olanzapine regardless of the routes of administration
[3] = tested on: healthy human subjects; assay: Subjective sedation by Visual Analogue Scale (VAS), phase 1 trial; settings: all subject groups treated with olanzapine regardless of the routes of administration

Cc1cc2c(s1)Nc1ccccc1N=C2N1CCN(C)CC1 [olanzapine]
maximum DSST changes compared to the baseline (response speed) [1]: decreases response speed in a dose dependent manner | ACES sedation effects [2]: dose-dependent sedation effects | VAS scores (Alert/Drowsy, Foggy/Clear-headed, Energetic/Lethargic) [3]: dose-dependent behavioral effects
